The chains behind the UniProt entries cited, without tags or fusion partners.
UniProt P03372, whole entry, looked up: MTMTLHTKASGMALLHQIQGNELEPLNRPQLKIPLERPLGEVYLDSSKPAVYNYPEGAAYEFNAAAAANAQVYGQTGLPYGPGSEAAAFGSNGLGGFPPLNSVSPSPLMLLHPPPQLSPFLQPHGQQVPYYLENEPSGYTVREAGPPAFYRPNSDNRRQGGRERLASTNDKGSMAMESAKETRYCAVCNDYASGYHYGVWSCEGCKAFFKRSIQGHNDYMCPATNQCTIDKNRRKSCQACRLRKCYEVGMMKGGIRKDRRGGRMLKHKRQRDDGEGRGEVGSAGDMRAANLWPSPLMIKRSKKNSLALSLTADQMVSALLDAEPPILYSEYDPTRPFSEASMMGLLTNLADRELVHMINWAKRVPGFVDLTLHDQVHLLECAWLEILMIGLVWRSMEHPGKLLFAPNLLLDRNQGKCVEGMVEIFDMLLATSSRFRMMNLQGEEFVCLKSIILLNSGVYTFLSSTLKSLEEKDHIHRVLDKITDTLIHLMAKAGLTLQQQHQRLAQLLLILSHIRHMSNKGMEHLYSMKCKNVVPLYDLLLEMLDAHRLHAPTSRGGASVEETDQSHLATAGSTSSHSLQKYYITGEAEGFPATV

Some of the results follow. Shown are side measurements of this screen, not its main read-out; they come without a call.
The compounds below were run against Estrogen receptor (Homo sapiens) (UniProt P03372) (assay: blockers of coactivator recruitment to ERα – biochemical, LOPAC library, TR-FRET, primary screen (AID 694;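 also: receptor was agonist-bound with estradiol present during the assay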)). Settings: TR-FRET ERalpha-coactivator peptide binding, at 15 µM, stronger effect = higher value.
`O=c1[nH]c2cc([N+](=O)[O-])c([N+](=O)[O-])cc2[nH]c1=O` showed an inhibition of 4.66%.
For `COc1cccc(-c2cc(=O)c3ccccc3o2)c1N`, the inhibition was 0.3%.
In the case of `C[N+](C)(C)CCO`, the inhibition is reported as -5.46%.
`CCCCCCCCCCCCCCC[C@H](O)[C@H](N)CO` was tested, and the inhibition was 35.3%.
In the case of `Nc1ccn([C@H]2CC[C@@H](CO)O2)c(=O)n1`, the inhibition is reported as -1.46%.
Compound `Cc1cccc(C)c1OCC(C)N` (stereo not drawn) has an inhibition of 5.04%.
With `COc1ccccc1N1CCN(CCCCN2C(=O)c3ccccc3C2=O)CC1` the inhibition was 0.84%.
In the case of `O=[N+]([O-])c1ccc(CSc2ncnc3c2ncn3[C@@H]2O[C@H](CO)[C@H](O)C2O)cc1` (stereo partly drawn), the inhibition is reported as 0.51%.
In the case of `CCCc1c(-c2ccc(O)cc2)nn(-c2ccc(O)cc2)c1-c1ccc(O)cc1`, the inhibition is reported as 36.6%.
Compound `Oc1ccc(/C=C/c2cc(O)cc(O)c2)cc1` has an inhibition of 4.05%.
Work on `CN(C)C(=O)C(CCN1CCC(O)(c2ccc(Cl)cc2)CC1)(c1ccccc1)c1ccccc1` yielded an inhibition of -0.92%.
Work on `O=C(O)C1CCCNC1` (stereo not drawn) yielded an inhibition of -4.47%.
In the case of `COC1(C2=NCCN2)COc2ccccc2O1` (stereo not drawn), the inhibition is reported as 2.09%.
Compound `CC(C)NC[C@@H](O)COc1ccc(CC(N)=O)cc1` has an inhibition of 3.19%.
For `Nc1cc(=O)[nH]c(N)n1`, the inhibition was -5.05%.
`CCn1c(=O)[nH]c2cc(Cl)c(Cl)cc21` was tested, and the inhibition was 0.94%.
For `O=C(O)[C@@H]1C[C@H](C(=O)O)N1`, the inhibition was -5.94%.
`S=C(S)N1CCCC1` gave an inhibition of 6.4%.
For `NS(=O)(=O)c1cc2c(cc1Cl)NC(C1CC3C=CC1C3)NS2(=O)=O` (stereo not drawn), the inhibition was -1.87%.
`NC(N)=NC(=O)c1nc(Cl)c(N)nc1N` was tested, and the inhibition was 7.06%.
With `C[C@@H](NCCc1ccc(O)cc1)[C@@H](O)c1ccc(O)cc1` the inhibition was 0.31%.
In the case of `Nc1ncnc2c1nc(Br)n2C1OC2COP(=O)(O)O[C@@H]2C1O` (stereo partly drawn), the inhibition is reported as 0.28%.
`Ic1ccc(N2CCN(Cc3c[nH]c4ncccc34)CC2)cc1` showed an inhibition of -5.13%.
In the case of `Cn1cnc([N+](=O)[O-])c1Sc1ncnc2nc[nH]c12`, the inhibition is reported as 2.31%.
`Nc1cc(Cl)c(NC2=NCCN2)c(Cl)c1` gave an inhibition of -3.62%.
Work on `OCCN(CCO)c1nc(N2CCCCC2)c2nc(N(CCO)CCO)nc(N3CCCCC3)c2n1` yielded an inhibition of 4.03%.
`O=c1onc2cnc3ccccc3n12` showed an inhibition of 27%.
In the case of `N#Cc1cc2nc(O)c(O)nc2cc1[N+](=O)[O-]`, the inhibition is reported as 20.1%.
Compound `CN(C)C(N)=NCCC[C@H](N)C(=O)O` has an inhibition of 6.27%.
With `N[C@@H](CS(=O)O)C(=O)O` the inhibition was -0.96%.
`Cc1ccc(=O)n(-c2ccccc2)c1` showed an inhibition of -0.24%.
`O=C(O)c1cc(=O)c2c(Cl)cc(Cl)cc2[nH]1` showed an inhibition of 3.54%.
With `C1CCc2nnnn2CC1` the inhibition was 1.51%.
In the case of `CC(C)OC(=O)C(C)(C)Oc1ccc(C(=O)c2ccc(Cl)cc2)cc1`, the inhibition is reported as 4.73%.
Compound `O=C(O)CC1CCCc2ccccc2C1O` (stereo not drawn) has an inhibition of -2.43%.
Compound `COc1cc2ncnc(Nc3cccc(Cl)c3)c2cc1OC` has an inhibition of -1.55%.
With `O=C(O)c1cc2cc(Cc3cccnc3)ccc2o1` the inhibition was -1.28%.
Work on `N#C/C(=C\c1ccc(O)c(O)c1)C(=O)NCCCc1ccccc1` yielded an inhibition of 1.17%.
Compound `CC1CCN=C(N)S1` (stereo not drawn) has an inhibition of -2.26%.
Work on `Nc1ncnc2c1ncn2[C@@H]1O[C@H](COP(=O)(O)OP(=O)(O)OP(=O)(O)OP(=O)(O)OC[C@@H]2O[C@H](n3cnc4c(N)ncnc43)C(O)[C@@H]2O)[C@H](O)C1O` (stereo partly drawn) yielded an inhibition of -2.43%.
With `OC1(c2ccc(Cl)cc2)CCN(Cc2c[nH]c3ccccc23)CC1` the inhibition was -0.66%.
`NC(=Nc1ccccc1)NC(=O)c1nc(Cl)c(N)nc1N` was tested, and the inhibition was 3.25%.
For `Cc1nc2ccccn2c(=O)c1CCN1CCC(C(=O)c2ccc(F)cc2)CC1`, the inhibition was 1.74%.
`O=C(CCNNC(=O)c1ccncc1)NCc1ccccc1` showed an inhibition of 0.93%.
With `CCCn1c(=O)c2[nH]c(C3CCCC3)nc2n(CCC)c1=O` the inhibition was 6.3%.
`NC(=O)c1cnccn1` showed an inhibition of 6.45%.
`N=C(N)c1ccc(N)cc1` showed an inhibition of -6.06%.
For `O=C1Cc2c([nH]c3ccc(Br)cc23)-c2ccccc2N1`, the inhibition was 5.71%.
`CNCCCC12CCC(c3ccccc31)c1ccccc12` gave an inhibition of 0.91%.
`CCNC(=O)[C@H]1O[C@@H](n2cnc3c(N)nc(NCCc4ccc(CCC(=O)O)cc4)nc32)C(O)[C@H]1O` (stereo partly drawn) showed an inhibition of -0.99%.
`Oc1cc2c(cc1O)CN(C(=S)NCCc1ccc(Cl)cc1)CCC2` was tested, and the inhibition was -1.58%.
`C[C@]12C=CC(=O)C=C1CC[C@H]1[C@@H]3C[C@@H](O)[C@](O)(C(=O)CO)[C@@]3(C)C[C@H](O)[C@@]12F` gave an inhibition of -0.94%.
Work on `CC(=O)CCCCn1c(=O)c2c(ncn2C)n(C)c1=O` yielded an inhibition of 5.15%.
`O=c1c(-c2ccc(O)cc2)coc2cc(O)ccc12` showed an inhibition of -0.78%.
For `COC(=O)c1c(-c2cc(OC)c(OC)c(OC)c2)c2ccc(OCc3ccccn3)cc2c(=O)n1-c1ccc(N)cc1`, the inhibition was 3.91%.
`NC(=O)OCC(COC(N)=O)c1ccccc1` gave an inhibition of -1.08%.
With `COCc1nc2c([nH]1)c(=O)n(C)c(=O)n2CC(C)C` the inhibition was 0.03%.
Compound `CCCCCCCCCC[Si](C)(C)CCC(=O)NC(Cc1ccc(C)cc1)c1ccccc1` (stereo not drawn) has an inhibition of -6.18%.
For `CCCCCC(O)c1cccc(OCc2ccc3ccccc3n2)c1` (stereo not drawn), the inhibition was -1.71%.
`OC[C@H]1O[C@@H](n2cnc3c(Nc4ccccc4)ncnc32)C(O)[C@H]1O` (stereo partly drawn) gave an inhibition of 7.38%.
In the case of `Cn1ccnc1`, the inhibition is reported as -2.64%.
`N#C/C(=C\c1ccc(O)c(O)c1)C(=O)NCCc1ccccc1` gave an inhibition of 5.01%.
Work on `O=c1cc(-c2ccccc2)[nH]c2nc(Cl)ccc12` yielded an inhibition of 0.93%.
`O=c1[nH]c(=O)c2nc3ccccc3nc2[nH]1` gave an inhibition of 2.52%.
`Oc1ccc(Cn2cc[nH]c2=S)cc1` showed an inhibition of 3.12%.
In the case of `c1ccc(-c2ccccn2)nc1`, the inhibition is reported as -5.37%.
Work on `CC(C)C[C@H](NC(=O)C1OC1C(=O)O)C(=O)NCCCCN=C(N)N` (stereo partly drawn) yielded an inhibition of 1.94%.
In the case of `C[C@]12C[C@H](O)[C@H]3[C@@H](CCC4=CC(=O)CC[C@@]43C)[C@@H]1CC[C@@H]2C(=O)CO`, the inhibition is reported as -9.64%.
With `Nc1c2c(nc3ccccc13)CCCC2` the inhibition was -2.38%.
For `CC(=O)SC1CC2=CC(=O)CC[C@]2(C)C2CC[C@@]3(C)C(CC[C@@]34CCC(=O)O4)C12` (stereo partly drawn), the inhibition was 3.19%.
In the case of `NC(N)=NC(=O)c1nc(Cl)c(N2CCCCCC2)nc1N`, the inhibition is reported as 3.67%.
`O=C(c1ccc2c(c1)OCCO2)N1CCCCC1` showed an inhibition of -2.26%.
Work on `CC(C)CN(C)c1nc(N)c(C(=O)N=C(N)N)nc1Cl` yielded an inhibition of -5.29%.
`COC(=O)C(C)(N)Cc1ccc(O)cc1` (stereo not drawn) gave an inhibition of 1.56%.
With `O=C1OC(=O)C2C3CCC(O3)C12` (stereo not drawn) the inhibition was 4.36%.
For `NCCC1CCCC(CCN)N1` (stereo not drawn), the inhibition was -3.21%.
`COC(=O)c1c(C)[nH]c(C)c1C(=O)c1ccccc1Cc1ccccc1` showed an inhibition of 3.45%.
Compound `COc1cc(C(O)CO)ccc1OS(=O)(=O)O` (stereo not drawn) has an inhibition of 6.49%.
Work on `CC(C(=O)O)c1cccc(C(=O)c2ccccc2)c1` (stereo not drawn) yielded an inhibition of 1.26%.
In the case of `O=C1O/C(=C/Br)CCC1c1cccc2ccccc12` (stereo not drawn), the inhibition is reported as -3.43%.
In the case of `CCOC(=O)c1ncn2c1CN(C)C(=O)c1cc(F)ccc1-2`, the inhibition is reported as -5.94%.
Compound `O=NN(CCCl)C(=O)NCCCl` has an inhibition of 2.36%.
For `CC[C@H](NC(=O)c1c(C)c(-c2ccccc2)nc2ccccc12)c1ccccc1`, the inhibition was -2.63%.
`NCC(O)(CS(=O)(=O)O)c1ccc(Cl)cc1` (stereo not drawn) gave an inhibition of -1.52%.
`CCCC(=O)NCCc1c2n(c3ccc(OC)cc13)Cc1ccccc1-2` showed an inhibition of 8.15%.
`NCC1OC(O[C@@H]2[C@H](O)C(OC3C(O)C(N)CC(N)C3OC3OC(CO)C(O)C(O)C3N)O[C@@H]2CO)C(N)C(O)C1O` (stereo partly drawn) gave an inhibition of -1.29%.
In the case of `C[N+](C)(CCCCCC[N+](C)(C)CCCN1C(=O)c2cccc3cccc(c23)C1=O)CCCN1C(=O)c2cccc3cccc(c23)C1=O`, the inhibition is reported as 4.12%.
`CC(=O)O[C@H]1C(=O)[C@@]2(C)C([C@H](OC(=O)c3ccccc3)[C@]3(O)C[C@H](OC(=O)[C@H](O)[C@@H](NC(=O)c4ccccc4)c4ccccc4)C(C)=C1C3(C)C)[C@]1(OC(C)=O)CO[C@@H]1C[C@@H]2O` (stereo partly drawn) was tested, and the inhibition was 1.91%.
For `O=c1onc2n1-c1cc(Br)ccc1OC2`, the inhibition was 1.61%.
With `Cc1ccc(/C(=C\CN2CCCC2)c2ccccn2)cc1` the inhibition was 0.44%.
`CNCCC=C1c2ccccc2CCc2ccccc21` gave an inhibition of 3.17%.
Compound `Cn1cc(C2=C(c3ccc(Cl)cc3Cl)C(=O)NC2=O)c2ccccc21` has an inhibition of 20.1%.
With `COc1cc(OC)c(/C=C2/C(=O)Nc3ccccc32)c(OC)c1` the inhibition was -5.44%.
In the case of `COc1cc2nc(N3CCN(C(=O)OCc4ccccc4)C(C(=O)NC(C)(C)C)C3)nc(N)c2cc1OC` (stereo not drawn), the inhibition is reported as 2.03%.
For `Cc1ccc(C(=O)Nc2ccc(S(=O)(=O)O)c3cc(S(=O)(=O)O)cc(S(=O)(=O)O)c23)cc1NC(=O)c1cccc(NC(=O)Nc2cccc(C(=O)Nc3cc(C(=O)Nc4ccc(S(=O)(=O)O)c5cc(S(=O)(=O)O)cc(S(=O)(=O)O)c45)ccc3C)c2)c1`, the inhibition was 15.1%.
`NC(=O)c1ncn([C@@H]2O[C@H](CO)[C@@H](O)[C@H]2O)c1O` gave an inhibition of -0.32%.
`Cn1c(=O)c2[nH]c(-c3ccc(S(=O)(=O)O)cc3)nc2n(C)c1=O` was tested, and the inhibition was -4.48%.
In the case of `FC(F)(F)c1cc(CO[C@H]2CCCN[C@H]2c2ccccc2)cc(C(F)(F)F)c1`, the inhibition is reported as -2.19%.
`CC(N)(C(=O)O)c1ccc(C(=O)O)cc1` (stereo not drawn) gave an inhibition of -2.05%.
`CC#CCOC(=O)c1c(C)nc2sc3c(c2c1N)CCC(O)C3` (stereo not drawn) showed an inhibition of -0.68%.
Compound `CN1CCc2cccc3c2C1Cc1ccc(O)c(O)c1-3` (stereo not drawn) has an inhibition of 1.36%.
For `O=C(O)C1=CCNCC1`, the inhibition was -1.31%.
In the case of `CCn1cc(C(=O)O)c(=O)c2cc(F)c(N3CCNC(C)C3)c(F)c21` (stereo not drawn), the inhibition is reported as -2.39%.
For `O=c1ccc2c(OCCCCc3ccccc3)c3ccoc3cc2o1`, the inhibition was -3.76%.
For `C[C@]12C=CC(=O)C=C1CC[C@@H]1C2=CC[C@]2(C)[C@@H](C(=O)CN3CCN(c4cc(N5CCCC5)nc(N5CCCC5)n4)CC3)CC[C@@H]12`, the inhibition was -4.73%.
With `NC(N)=N/N=C/c1c(Cl)cccc1Cl` the inhibition was 2.85%.
`CN(C)CCC=C1c2ccccc2C=Cc2ccccc21` was tested, and the inhibition was 2.12%.
`NS(=O)(=O)c1cc2c(cc1Cl)NCNS2(=O)=O` was tested, and the inhibition was 14.4%.
In the case of `CC1=C(/C=C/C(C)=C/C=C/C(C)=C/C(=O)Nc2ccc(O)cc2)C(C)(C)CCC1`, the inhibition is reported as 8.26%.
Work on `COc1cc2c(cc1OC)[C@@H](c1ccccc1)CN(C)CC2` yielded an inhibition of -4.22%.
In the case of `CCN(CC)C(C)C(=O)N1c2ccccc2Sc2ccccc21` (stereo not drawn), the inhibition is reported as 0.36%.
For `CC(=O)OCC(=O)[C@@]1(O)CC[C@H]2[C@@H]3CCC4=CC(=O)CC[C@]4(C)[C@H]3C(=O)C[C@@]21C`, the inhibition was 2.85%.
`CN1CCC2(CCN3CCc4c(oc5ccccc45)C3C2)N(C)C1=O` (stereo not drawn) was tested, and the inhibition was -8.25%.

Reference: PubChem BioAssay AID694 (Emory University Molecular Libraries Screening Center, 2007)
